Results are given in words; binding and its absence hold for the method and conditions named. In cells and extracts the contact can be indirect. Some results given as binding are weak or reduced against the parent protein; the word gives no strength.

Sequences of proteins named here, by UniProt entry; tags and fusion partners are left off. Residues count along the entry.
UniProt Q9UQ35, residues 1-2748: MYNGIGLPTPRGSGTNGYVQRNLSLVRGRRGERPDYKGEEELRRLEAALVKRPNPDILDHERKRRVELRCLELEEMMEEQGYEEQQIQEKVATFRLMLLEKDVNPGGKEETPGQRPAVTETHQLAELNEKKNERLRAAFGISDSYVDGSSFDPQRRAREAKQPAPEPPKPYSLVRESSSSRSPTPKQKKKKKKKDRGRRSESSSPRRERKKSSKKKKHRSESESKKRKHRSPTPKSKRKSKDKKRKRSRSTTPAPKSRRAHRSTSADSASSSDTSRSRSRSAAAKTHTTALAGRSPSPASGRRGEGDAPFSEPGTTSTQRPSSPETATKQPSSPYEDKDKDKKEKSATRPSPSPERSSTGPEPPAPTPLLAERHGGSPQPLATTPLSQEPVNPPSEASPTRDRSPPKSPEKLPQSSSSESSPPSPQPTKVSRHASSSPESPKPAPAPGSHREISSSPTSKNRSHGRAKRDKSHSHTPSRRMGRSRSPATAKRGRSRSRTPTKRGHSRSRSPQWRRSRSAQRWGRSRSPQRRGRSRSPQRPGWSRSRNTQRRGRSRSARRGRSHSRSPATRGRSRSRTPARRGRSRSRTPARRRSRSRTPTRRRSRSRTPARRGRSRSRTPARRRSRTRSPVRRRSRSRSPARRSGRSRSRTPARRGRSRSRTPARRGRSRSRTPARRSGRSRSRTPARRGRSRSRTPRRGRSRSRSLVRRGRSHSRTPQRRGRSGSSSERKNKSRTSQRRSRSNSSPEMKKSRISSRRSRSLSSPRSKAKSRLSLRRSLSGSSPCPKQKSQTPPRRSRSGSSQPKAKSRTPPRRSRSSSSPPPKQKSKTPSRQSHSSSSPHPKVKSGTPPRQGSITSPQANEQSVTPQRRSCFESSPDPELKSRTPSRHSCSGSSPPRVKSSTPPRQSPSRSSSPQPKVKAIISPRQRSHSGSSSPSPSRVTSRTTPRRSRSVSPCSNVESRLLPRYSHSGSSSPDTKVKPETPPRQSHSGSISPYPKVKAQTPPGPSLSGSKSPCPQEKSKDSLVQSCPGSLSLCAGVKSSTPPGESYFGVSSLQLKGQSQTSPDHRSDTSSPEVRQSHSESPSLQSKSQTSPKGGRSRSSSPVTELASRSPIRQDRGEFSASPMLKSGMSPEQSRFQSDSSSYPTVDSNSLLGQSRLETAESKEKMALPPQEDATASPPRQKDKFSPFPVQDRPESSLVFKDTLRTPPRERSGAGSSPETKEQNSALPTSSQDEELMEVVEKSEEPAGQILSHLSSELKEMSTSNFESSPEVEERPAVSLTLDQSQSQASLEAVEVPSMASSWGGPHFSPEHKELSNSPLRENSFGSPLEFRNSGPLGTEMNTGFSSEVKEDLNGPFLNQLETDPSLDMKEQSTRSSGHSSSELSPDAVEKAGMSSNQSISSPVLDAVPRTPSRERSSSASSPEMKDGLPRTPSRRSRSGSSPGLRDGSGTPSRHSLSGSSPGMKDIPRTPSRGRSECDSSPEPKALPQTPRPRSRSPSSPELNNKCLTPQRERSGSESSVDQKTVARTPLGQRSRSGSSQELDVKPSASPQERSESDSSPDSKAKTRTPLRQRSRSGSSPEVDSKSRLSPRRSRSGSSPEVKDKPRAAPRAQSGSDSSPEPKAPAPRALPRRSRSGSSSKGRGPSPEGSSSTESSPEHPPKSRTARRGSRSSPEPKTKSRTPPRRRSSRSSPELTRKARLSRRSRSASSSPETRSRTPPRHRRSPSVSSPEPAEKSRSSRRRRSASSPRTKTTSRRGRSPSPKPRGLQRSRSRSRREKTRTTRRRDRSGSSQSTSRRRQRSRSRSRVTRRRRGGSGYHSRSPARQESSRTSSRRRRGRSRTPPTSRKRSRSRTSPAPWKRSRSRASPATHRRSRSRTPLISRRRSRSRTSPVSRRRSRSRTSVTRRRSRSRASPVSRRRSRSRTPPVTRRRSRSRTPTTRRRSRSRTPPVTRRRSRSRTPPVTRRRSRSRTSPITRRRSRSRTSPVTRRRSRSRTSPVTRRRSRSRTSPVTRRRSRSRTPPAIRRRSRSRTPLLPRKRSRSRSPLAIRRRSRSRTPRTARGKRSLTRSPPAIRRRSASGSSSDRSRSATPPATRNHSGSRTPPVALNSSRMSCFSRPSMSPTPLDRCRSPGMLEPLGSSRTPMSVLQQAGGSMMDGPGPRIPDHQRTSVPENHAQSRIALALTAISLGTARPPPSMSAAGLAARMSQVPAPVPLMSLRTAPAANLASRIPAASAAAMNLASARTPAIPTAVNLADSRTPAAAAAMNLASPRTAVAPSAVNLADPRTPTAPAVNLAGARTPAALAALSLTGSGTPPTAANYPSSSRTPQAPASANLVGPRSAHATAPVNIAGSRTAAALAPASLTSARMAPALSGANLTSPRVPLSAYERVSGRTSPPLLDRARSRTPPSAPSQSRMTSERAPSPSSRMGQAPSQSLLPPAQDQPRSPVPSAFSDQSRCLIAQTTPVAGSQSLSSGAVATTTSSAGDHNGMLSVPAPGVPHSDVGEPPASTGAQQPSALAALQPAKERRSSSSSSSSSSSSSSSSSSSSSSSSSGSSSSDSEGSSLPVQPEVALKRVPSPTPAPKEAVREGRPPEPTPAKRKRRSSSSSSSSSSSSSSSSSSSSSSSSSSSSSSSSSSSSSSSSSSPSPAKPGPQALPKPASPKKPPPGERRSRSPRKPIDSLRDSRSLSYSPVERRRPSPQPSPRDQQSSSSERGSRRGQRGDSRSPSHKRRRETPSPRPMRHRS

The test addresses SRRM2^tr0 (SRRM2 truncation 0, TagGFP2 fusion, near-full-length) (human) (UniProt Q9UQ35). The test is described as follows: co-IP; GFP-trap agarose beads on whole-cell lysates of HAP1 cell lines with TagGFP2-tagged SRRM2 alleles (wild-type lysate as negative control), overnight in the cold-room; washes with 1x NLB, briefly HSB (1M NaCl), NDB; eluates immunoblotted. (Immunoblotting shows a protein as a band on a membrane.)

B1: SRRM1 (protein, UniProt Q8IYB3 1-904)
chain: MDAGFFRGTSAEQDNRFSNKQKKLLKQLKFAECLEKKVDMSKVNLEVIKPWITKRVTEILGFEDDVVIEFIFNQLEVKNPDSKMMQINLTGFLNGKNAREFMGELWPLLLSAQENIAGIPSAFLELKKEEIKQRQIEQEKLASMKKQDEDKDKRDKEEKESSREKRERSRSPRRRKSRSPSPRRRSSPVRRERKRSHSRSPRHRTKSRSPSPAPEKKEKTPELPEPSVKVKEPSVQEATSTSDILKVPKPEPIPEPKEPSPEKNSKKEKEKEKTRPRSRSRSKSRSRTRSRSPSHTRPRRRHRSRSRSYSPRRRPSPRRRPSPRRRTPPRRMPPPPRHRRSRSPVRRRRRSSASLSGSSSSSSSSRSRSPPKKPPKRTSSPPRKTRRLSPSASPPRRRHRPSPPATPPPKTRHSPTPQQSNRTRKSRVSVSPGRTSGKVTKHKGTEKRESPSPAPKPRKVELSESEEDKGGKMAAADSVQQRRQYRRQNQQSSSDSGSSSSSEDERPKRSHVKNGEVGRRRRHSPSRSASPSPRKRQKETSPRGRRRRSPSPPPTRRRRSPSPAPPPRRRRTPTPPPRRRTPSPPPRRRSPSPRRYSPPIQRRYSPSPPPKRRTASPPPPPKRRASPSPPPKRRVSHSPPPKQRSSPVTKRRSPSLSSKHRKGSSPSRSTREARSPQPNKRHSPSPRPRAPQTSSSPPPVRRGASSSPQRRQSPSPSTRPIRRVSRTPEPKKIKKAASPSPQSVRRVSSSRSVSGSPEPAAKKPPAPPSPVQSQSPSTNWSPAVPVKKAKSPTPSPSPPRNSDQEGGGKKKKKKKDKKHKKDKKHKKHKKHKKEKAVAAAAAAAVTPAAIAAATTTLAQEEPVAAPEPKKETESEAEDNLDDLEKHLREKALRSMRKAQVSPQS
As to B1, the binding result is recorded as “binds”.
